Experimental data taken from publication PMC7581431.
No constants are given. Whether binding was seen depends on the method and setting. For some assays here: In cells and extracts the contact can be indirect. Some results given as binding are weak or reduced against the parent protein; the word gives no strength.

Amino acid sequences for entries named in this document (tags omitted).
UniProt O15169: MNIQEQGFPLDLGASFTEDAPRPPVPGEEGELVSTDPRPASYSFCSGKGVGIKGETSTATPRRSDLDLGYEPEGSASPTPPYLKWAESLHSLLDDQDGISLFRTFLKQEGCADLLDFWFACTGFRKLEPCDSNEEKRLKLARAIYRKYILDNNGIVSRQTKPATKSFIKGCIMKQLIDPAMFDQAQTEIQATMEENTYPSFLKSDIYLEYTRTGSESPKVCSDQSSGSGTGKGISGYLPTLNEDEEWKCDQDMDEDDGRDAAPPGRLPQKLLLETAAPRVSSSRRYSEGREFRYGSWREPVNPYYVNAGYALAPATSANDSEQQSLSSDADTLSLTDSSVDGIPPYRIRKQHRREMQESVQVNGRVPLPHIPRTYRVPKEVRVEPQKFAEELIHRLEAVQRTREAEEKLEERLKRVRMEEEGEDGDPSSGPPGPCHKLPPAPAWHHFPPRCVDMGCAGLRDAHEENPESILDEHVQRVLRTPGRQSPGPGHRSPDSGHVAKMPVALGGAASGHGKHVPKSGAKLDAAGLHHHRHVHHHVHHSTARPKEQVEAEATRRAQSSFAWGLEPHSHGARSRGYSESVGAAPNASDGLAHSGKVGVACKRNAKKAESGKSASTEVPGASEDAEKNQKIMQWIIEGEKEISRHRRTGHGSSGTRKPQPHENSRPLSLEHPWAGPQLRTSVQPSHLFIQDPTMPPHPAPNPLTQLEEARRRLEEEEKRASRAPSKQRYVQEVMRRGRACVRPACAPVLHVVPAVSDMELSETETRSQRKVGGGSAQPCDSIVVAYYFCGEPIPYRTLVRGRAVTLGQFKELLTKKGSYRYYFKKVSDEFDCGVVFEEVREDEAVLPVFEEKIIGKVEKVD
UniProt Q99MH6: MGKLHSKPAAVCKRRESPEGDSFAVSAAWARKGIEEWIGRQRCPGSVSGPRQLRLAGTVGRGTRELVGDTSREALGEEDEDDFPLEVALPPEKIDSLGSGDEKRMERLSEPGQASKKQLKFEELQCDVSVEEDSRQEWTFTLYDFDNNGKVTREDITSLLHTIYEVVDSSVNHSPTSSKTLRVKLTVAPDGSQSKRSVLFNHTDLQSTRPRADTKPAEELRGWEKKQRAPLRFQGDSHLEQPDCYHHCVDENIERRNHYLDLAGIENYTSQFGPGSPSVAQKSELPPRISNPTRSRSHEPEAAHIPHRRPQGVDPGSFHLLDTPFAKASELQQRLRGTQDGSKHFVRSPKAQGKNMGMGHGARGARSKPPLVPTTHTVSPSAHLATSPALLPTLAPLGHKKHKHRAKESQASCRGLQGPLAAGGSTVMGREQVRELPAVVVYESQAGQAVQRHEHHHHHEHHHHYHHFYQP
UniProt Q9Y2T1: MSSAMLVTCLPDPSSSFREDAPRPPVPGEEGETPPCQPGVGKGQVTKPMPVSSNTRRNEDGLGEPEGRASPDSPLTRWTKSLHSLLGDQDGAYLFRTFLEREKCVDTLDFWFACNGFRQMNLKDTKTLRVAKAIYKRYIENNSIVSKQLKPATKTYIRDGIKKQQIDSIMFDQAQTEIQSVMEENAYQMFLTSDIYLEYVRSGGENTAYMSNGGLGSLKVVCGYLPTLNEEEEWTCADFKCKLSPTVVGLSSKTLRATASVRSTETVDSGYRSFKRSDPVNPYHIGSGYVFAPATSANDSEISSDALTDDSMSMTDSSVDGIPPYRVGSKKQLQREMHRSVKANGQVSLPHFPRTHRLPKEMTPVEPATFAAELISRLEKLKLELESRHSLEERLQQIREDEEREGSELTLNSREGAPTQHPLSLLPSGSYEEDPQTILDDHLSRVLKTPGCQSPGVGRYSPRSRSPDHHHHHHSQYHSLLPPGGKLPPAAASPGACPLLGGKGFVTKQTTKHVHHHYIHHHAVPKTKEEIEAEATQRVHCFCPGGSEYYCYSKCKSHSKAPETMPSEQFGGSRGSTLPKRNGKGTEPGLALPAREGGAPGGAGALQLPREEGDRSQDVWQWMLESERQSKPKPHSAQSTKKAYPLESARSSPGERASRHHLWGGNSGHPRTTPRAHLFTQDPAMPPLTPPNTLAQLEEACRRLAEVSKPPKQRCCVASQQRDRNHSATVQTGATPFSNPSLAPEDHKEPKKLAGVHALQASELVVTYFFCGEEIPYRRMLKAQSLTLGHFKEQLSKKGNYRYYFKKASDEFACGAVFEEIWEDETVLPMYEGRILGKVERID

Tests used:
Axin1-GFP = Axin1-GFP (UniProt O15169); assay: co-IP; co-expressed proteins in transfected HEK293T cells (control or DVL null); lysis 24-36 hr post-transfection in 20 mM Tris-HCl pH 7.4, 200 mM NaCl, 10% glycerol, 0.2% Triton X-100; Flag- or GFP-trap affinity gel, 90 min to overnight at 4°C; eluted by boiling in LDS sample buffer
HA-Nkd1 (murine) = HA-Nkd1 (murine) (UniProt Q99MH6); assay: Western blot of SDS-resistant high-molecular weight (HMW) aggregates; overexpressed Nkd1 in transfected HEK293T cells, alone or with Flag-DVL2; HMW aggregates resistant to boiling in SDS
Flag-Axin1 = Flag-Axin1 (UniProt O15169); assay: co-IP; co-expressed proteins in transfected HEK293T cells (control or DVL null); lysis 24-36 hr post-transfection in 20 mM Tris-HCl pH 7.4, 200 mM NaCl, 10% glycerol, 0.2% Triton X-100; Flag- or GFP-trap affinity gel, 90 min to overnight at 4°C; eluted by boiling in LDS sample buffer
Flag-Axin2 = Flag-Axin2 (UniProt Q9Y2T1); assay: as above
Flag-p62 = Flag-p62 (UniProt Q13501); assay: as above

binding (Axin1-GFP) | binding (HA-Nkd1 (murine)) | binding (Flag-Axin1) | binding (Flag-Axin2) | binding (Flag-p62) | Substance
binds | – | – | – | – | Flag-Nkd1 (from UniProt Q99MH6 1-471)
– | binds | binds | no binding | binds | HA-Nkd1 (from UniProt Q99MH6 1-471)
